Measured values from PubChem BioAssay AID2685 (National Center for Advancing Translational Sciences (NCATS), 2010).
Among all 320,000 compounds or so, about 2,100 (0.66%) were called active. The shares of active, inactive and inconclusive entries below differ from those in the screen. Calls follow the shape of the dose curve; as a rule, active = well fitted inhibition curve with a large enough effect in the signal ratio, with a control signal flat (not every such curve was filed as active); inconclusive = small, poorly fitted or top-dose-only effect, or effect the other way, or a change in a side signal; inactive = flat fitted curve, though single readings scatter; the % refers to the signal ratio. Potencies of inconclusive entries are doubtful fits and often do not repeat.
% is scaled to controls: 0 for no effect and ±100 for the full control effect; potency is read from the fitted curve at half-maximal effect.

Assay: qHTS Assay for Lipid Storage Modulators in Drosophila S3 Cells
Conditions: BODIPY lipid droplet fluorescence, 18-24 h, cells fed with added oleic acid; lipid storage change, negative = inhibition: at 46.1 µM (top of the series) unless noted
In short: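 Drosophila S3 cells loaded with oleic acid (400 uM, as added) and compounds at several concentrations; lipid droplets imaged by 488-nm laser-scanning cytometry, 500–530 nm intensity and object ratio to cell channel. Percent activity normalized to 20 uM Triacsin C.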
For `CCc1ccccc1Nc1nc(N)nc(COC(=O)CCNS(=O)(=O)c2ccccc2)n1`, the lipid storage change, negative = inhibition was “inconclusive”. For `O=C(NCc1ccc2c(c1)OCO2)c1ccc(Cl)s1`, the lipid storage change, negative = inhibition was inconclusive: 44.8%. In the case of `Cc1cccc(OCC(=O)NCCCNC(=O)c2cnccn2)c1`, the lipid storage change, negative = inhibition is reported as inconclusive: 3.69%. With `Cc1nc2ccccc2n1C1CCN(CC(=O)Nc2ccccc2Br)CC1` the lipid storage change, negative = inhibition was inconclusive: -43.2%. For `Cc1ccc(SCc2nc(-c3ccccn3)no2)cc1`, the Potency was inconclusive: 11.6 µM [activator, partial curve]. With `COc1ccc(C2/C(=C(\O)c3ccc4c(c3)OCCO4)C(=O)C(=O)N2CCCN(C)C)c(OC)c1` (configuration not stated) the Potency was inconclusive: 0.0651 µM [falling, full curve, poor fit]. With `Cc1ccc(NC(NC(=O)c2ccccc2[N+](=O)[O-])C(Cl)(Cl)Cl)cc1` (configuration not stated) the lipid storage change, negative = inhibition was inconclusive: -7.69%. In the case of `CCCNC(=O)c1ccc(S(=O)(=O)c2ccc(OC)cc2)c([N+](=O)[O-])c1`, the lipid storage change, negative = inhibition is reported as inconclusive: -6.46%. For `CC(O)[C@H]1CNC(=O)C(=O)N1CC1CCCCC1` (some centres not stated), the lipid storage change, negative = inhibition was inconclusive: 1.38%. With `Cc1cccn2c(=O)nc(SCC(=O)N3CCCCC3)nc12` the Potency was inconclusive: 4.11 µM [activator, single point]. For `COCCn1c(SCC(=O)Nc2ccc3[nH]c(=O)[nH]c3c2)nc2ccccc2c1=O`, the Potency was inconclusive: 29.1 µM [activator, single point]. With `CCCS(=O)(=O)N1CCCC(C(=O)N2CCN(C(=O)OCC)CC2)C1` (configuration not stated) the lipid storage change, negative = inhibition was inconclusive: 27.2%. For `CC(=O)N/C(=C\c1cccc([N+](=O)[O-])c1)C(=O)NC1CCCCC1`, the Potency was inconclusive: 3.26 µM [activator, single point]. For `CC(=O)Nc1ccc(NC(=O)Cn2c(CC(=O)N3CCCC3)nc3ccccc32)cc1`, the lipid storage change, negative = inhibition was inconclusive: 5.93%. With `O=C(Nc1cccc2ccccc12)C1CCN(C(=O)NCc2ccccc2)CC1` the lipid storage change, negative = inhibition was inconclusive: -1.61%. With `Cc1ccc(CN2CCN(Cc3nc4c(s3)CCCC4)CC2CCO)cc1` (configuration not stated) the lipid storage change, negative = inhibition was inconclusive: -29.6%. In the case of `Cc1nnc(NC(=O)C2CCCN(S(=O)(=O)Cc3ccccc3)C2)s1` (configuration not stated), the lipid storage change, negative = inhibition is reported as inconclusive: 11.3%. For `Fc1ccc(NC(=S)N2CCCN(c3ccc(C(F)(F)F)cn3)CC2)c(F)c1`, the Potency was inconclusive: 29.1 µM [falling, single point]. With `COc1ccc(C2NC(=O)CCC2[N+](=O)[O-])cc1` (configuration not stated) the lipid storage change, negative = inhibition was inconclusive: 4.38%. With `O=C(O)c1ccccc1-c1ccccc1C(=O)NCc1ccccc1Cl` the Potency was inconclusive: 0.164 µM [falling, full curve, poor fit]. For `Cc1cc(C(=O)N/N=C/C=C/c2ccccc2[N+](=O)[O-])c(C)o1`, the lipid storage change, negative = inhibition was inconclusive: 27.7%. For `CCC(=O)NC(C)C(c1cccs1)N1CCN(Cc2ccccc2)CC1` (configuration not stated), the lipid storage change, negative = inhibition was inconclusive: 16.9%. For `Cn1cnnc1SCCC(=O)Nc1ccc(Cl)cc1`, the lipid storage change, negative = inhibition was inconclusive: 1.45%. In the case of `CCOC(=O)c1c(N)sc2c1C1CCN2CC1`, the lipid storage change, negative = inhibition is reported as inconclusive: -2.82%. With `COc1ccc(-c2cc(=O)n(-c3ccc([N+](=O)[O-])cc3)[nH]2)cc1` the Potency was inconclusive: 18.4 µM [falling, partial curve]. With `O=C(COc1ccc(Cl)cc1)N1CCN(c2cccc(C(F)(F)F)c2)CC1` the lipid storage change, negative = inhibition was inconclusive: 1.18%. With `CCc1ccccc1NC(=O)Nn1cnnc1` the lipid storage change, negative = inhibition was inconclusive: 14.1%. For `CC(=O)c1ccc(NS(=O)(=O)c2ccc3c(c2)N(C(C)=O)CCO3)cc1`, the lipid storage change, negative = inhibition was inconclusive: 19.3%. In the case of `O=C1c2ccccc2NC(c2ccccc2)N1Cc1ccco1` (configuration not stated), the lipid storage change, negative = inhibition is reported as inconclusive: 14.3%. In the case of `Cc1cnc(NC(=O)Cc2cccs2)s1`, the lipid storage change, negative = inhibition is reported as inconclusive: -29.9%. For `O=C(NCc1ccccc1)C(c1ccccc1)N(C(=O)c1csnn1)C1CCCC1` (configuration not stated), the lipid storage change, negative = inhibition was inconclusive: -43.2%. With `COC(=O)COc1ccc(-n2cnnn2)cc1` the Potency was inconclusive: 0.103 µM [falling, full curve]. With `COCCCn1c(C)nnc1-c1cnn(-c2ccccc2)c1N` the lipid storage change, negative = inhibition was “inactive”. For `COc1ccc2oc(=O)cc(-c3cc4cccc(OC)c4o3)c2c1`, the lipid storage change, negative = inhibition was inconclusive: 24.4%. With `O=C(Nc1nc(-c2ccccn2)cs1)C1CCCC1` the Potency was inconclusive: 29.1 µM [cytotoxic, single point]. With `CC(C)c1ccc(-n2ccnc2SCC(=O)O)cc1` the lipid storage change, negative = inhibition was inconclusive: 26.4%. For `CC(NC(=O)CSc1ncn[nH]1)c1ccc(Cl)cc1Cl` (configuration not stated), the lipid storage change, negative = inhibition was inconclusive: 20.9%. With `CCN(Cc1nc(-c2ccc(C)cc2)no1)C(=O)c1ccco1` the lipid storage change, negative = inhibition was inconclusive: 90.7%. With `O=C(CSc1ncnc2ccccc12)c1ccc2c(c1)OCCO2` the lipid storage change, negative = inhibition was inconclusive: -47.6%. For `Cc1ccccc1Cn1cc(NC(=O)c2noc(C(C)C)c2[N+](=O)[O-])cn1`, the lipid storage change, negative = inhibition was inconclusive: 8.14%. In the case of `Cc1cccc(N2CCN(S(=O)(=O)c3ccc4[nH]c(=O)ccc4c3)CC2)c1C`, the Potency is reported as inconclusive: 18.4 µM [falling, single point]. With `Cc1ccc(-c2noc(C3CCCN(C(=O)c4ccccc4Br)C3)n2)o1` (configuration not stated) the lipid storage change, negative = inhibition was inconclusive: -3.05%. For `CNC[C@H](O)c1ccc(O)c(O)c1`, the lipid storage change, negative = inhibition was inconclusive: -5.14%. For `OC1O[C@H](c2ccc3c(c2)OCO3)[C@H]2CO[C@H](c3ccc4c(c3)OCO4)[C@@H]12` (some centres not stated), the lipid storage change, negative = inhibition was inconclusive: 14.2%. For `C=CCN1CCN(C(=O)CCCc2ccccc2)CC1`, the lipid storage change, negative = inhibition was inconclusive: 15.3%. For `CNC(=O)c1cc2c(=O)n3cc(C)ccc3nc2n(C(C)C)c1=N`, the lipid storage change, negative = inhibition was inconclusive: -38.5%. In the case of `O=C(Cn1cc(C(F)(F)F)ccc1=O)Nc1cc(S(=O)(=O)N2CCOCC2)ccc1Cl`, the lipid storage change, negative = inhibition is reported as inconclusive: 32% [activator]. In the case of `Cc1sc2nc(SCC(=O)O)[nH]c(=O)c2c1C`, the Potency is reported as inconclusive: 1.46 µM [falling, partial curve]. With `COc1ccc([N+](=O)[O-])cc1N(CC(O)Cn1nnc2ccccc21)S(=O)(=O)c1ccc(C)cc1` (configuration not stated) the lipid storage change, negative = inhibition was inconclusive: -22.2%. For `COC(=O)c1ccccc1SC1CC(=O)N(c2cccc(C)c2)C1=O` (configuration not stated), the lipid storage change, negative = inhibition was inconclusive: -2.77%. In the case of `COc1ccc(NC(=S)Nc2ccc3nsnc3c2)cc1`, the lipid storage change, negative = inhibition is reported as inconclusive: 25%. For `COc1ccc(OC)c(N(CC(=O)NCc2ccncc2)S(C)(=O)=O)c1`, the lipid storage change, negative = inhibition was inconclusive: 12.7%.
